The values below come from publication PMC8110956, “An infection-induced RhoB-Beclin 1-Hsp90 complex enhances clearance of uropathogenic Escherichia coli” (Nature Communications, 2021).

Amino acid sequences for entries named in this document (tags omitted). A change or cut given only in a name is not applied to a line headed by its entry. Residues count along the entry.
UniProt Q14457: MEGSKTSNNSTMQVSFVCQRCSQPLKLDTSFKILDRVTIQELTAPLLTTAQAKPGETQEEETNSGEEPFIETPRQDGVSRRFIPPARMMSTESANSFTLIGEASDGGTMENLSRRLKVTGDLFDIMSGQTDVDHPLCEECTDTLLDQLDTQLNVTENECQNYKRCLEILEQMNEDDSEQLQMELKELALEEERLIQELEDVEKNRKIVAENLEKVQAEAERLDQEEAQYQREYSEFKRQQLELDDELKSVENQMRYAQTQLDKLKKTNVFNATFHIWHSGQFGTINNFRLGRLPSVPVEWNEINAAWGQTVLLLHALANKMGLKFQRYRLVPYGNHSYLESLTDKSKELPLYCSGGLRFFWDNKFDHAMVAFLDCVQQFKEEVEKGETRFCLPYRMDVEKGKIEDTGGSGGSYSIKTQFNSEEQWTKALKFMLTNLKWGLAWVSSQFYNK
UniProt P62745: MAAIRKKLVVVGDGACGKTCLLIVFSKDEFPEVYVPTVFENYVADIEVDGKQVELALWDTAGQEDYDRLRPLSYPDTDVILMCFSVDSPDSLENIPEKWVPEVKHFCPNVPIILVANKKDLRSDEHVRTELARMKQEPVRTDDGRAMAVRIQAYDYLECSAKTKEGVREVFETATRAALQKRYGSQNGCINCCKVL
3×FLAG-RhoB (89–196): residues 89-196 of P62745
3×FLAG-RhoB (118–196): residues 118-196 of P62745

These are yes or no findings as the source states them, for the method shown. In cells and extracts the contact can be indirect. Some binding calls cover weakened binding; strength is not graded here.

Experiment [1] has as its target endogenous Beclin 1 (5637 bladder epithelial cells) (human (endogenous in 5637)) (UniProt Q14457). As to the kind of experiment: co-IP; endogenous proteins of 5637 bladder epithelial cells treated with LPS for 2 h or infected by CFT073; lysate with anti-RhoB, anti-Beclin 1 or IgG overnight at 4 °C, Protein A/G beads; western blot. In general terms: In western blotting, separated proteins are transferred to a membrane and probed.

For experiment [2], the target named is endogenous RhoB (5637 bladder epithelial cells) (human (endogenous in 5637)) (UniProt P62745). The description is as above.
For experiment [3], the target named is 3×FLAG-RhoB (118–196) (human) (UniProt P62745). Kind of experiment: co-IP; HEK293 co-transfected with MYC-Beclin 1 and FLAG- or 3×FLAG-RhoB constructs, 48 h; lysate (50 mM Tris-HCl pH 7.4, 150 mM NaCl, 1% NP-40) on anti-FLAG or anti-c-MYC beads overnight at 4 °C, eluted with 3×FLAG or c-MYC peptide; western blot.
Experiment [4] has as its target 3×FLAG-RhoB (89–196) (human) (UniProt P62745). Described as above.

With “endogenous RhoB (5637 bladder epithelial cells) (from UniProt P62745 1-196)”, the binding result in experiment [1] was “binds”. “endogenous Beclin 1 (5637 bladder epithelial cells) (from UniProt Q14457 1-450)”: in experiment [2], the binding entry was “binds”.

Consider “MYC-tagged Beclin 1 (from UniProt Q14457 1-450)”, for which the binding entry in experiment [3] and in experiment [4] was “binds” in each case.
